From patent US20030100114

Key:
[1] = biological target: T1, NF-ATp (Rel domain) (Mus musculus) (UniProt Q60591); assay: EMSA; details: protein translated in vitro; protein details: rabbit reticulocyte lysate TnT; label: 32P
T1 sequence (looked up, limits assumed): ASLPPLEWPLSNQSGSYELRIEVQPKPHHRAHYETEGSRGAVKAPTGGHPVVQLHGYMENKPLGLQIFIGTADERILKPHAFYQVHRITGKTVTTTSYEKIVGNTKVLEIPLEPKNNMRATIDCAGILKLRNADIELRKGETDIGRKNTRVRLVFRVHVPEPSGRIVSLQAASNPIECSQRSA

c-Maf (full-length) = biological target: T2, c-Maf (full-length) (UniProt P54843); assay: activity in cells; details: IL-4 promoter CAT reporter transactivation in M12 cells; protein in cells; protein details: pMEX-Maf expression in M12 cells; only the site is given
T2 sequence (looked up): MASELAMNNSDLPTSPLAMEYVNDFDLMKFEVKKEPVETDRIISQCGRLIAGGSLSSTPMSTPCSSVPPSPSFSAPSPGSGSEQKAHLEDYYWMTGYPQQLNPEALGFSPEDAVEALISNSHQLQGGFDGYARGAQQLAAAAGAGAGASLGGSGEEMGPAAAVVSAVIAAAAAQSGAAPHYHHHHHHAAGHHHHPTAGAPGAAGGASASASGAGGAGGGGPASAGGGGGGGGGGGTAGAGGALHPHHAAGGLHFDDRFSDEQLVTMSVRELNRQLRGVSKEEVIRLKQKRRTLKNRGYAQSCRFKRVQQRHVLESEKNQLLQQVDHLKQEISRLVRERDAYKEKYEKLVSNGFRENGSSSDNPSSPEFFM

“CTCATTTTCCCTTGGTTTCAGCAACTTTAACTC (double strand) [IL-4 promoter -59 to -27 wild type]” was tested, and the binding result [1] was “binds” and the “activity on this sequence” value (c-Maf (full-length)) was “active”.

Where a protein sequence is shown, tags need not be part of it.
